This is an account of results in PubChem BioAssay AID256 (DTP/NCI, 2004).

The list is a part of this screen's results and no random one: it is rich in T/C values a quarter to a half above the control, in often repeated tests (any T/C) and in doses without a T/C. Further doses and runs are listed elsewhere. T/C is the treated group as % of the vehicle group. Some doses have a count of surviving animals in place of a T/C: the source files T/C as zero there, which appears to mark a toxic dose or a test without result, not a measured value. Some survivor counts are full or nearly so, which does not show that the dose was tolerated: survival well below the control is almost never listed, so the zero probably covers shortened survival too. Counts of survivors are from the toxicity check (mostly the fifth day) where no day follows; animals may have died later. Schedule codes are those of the source, taken here to give the interval after Q, in days (D) or hours (H), and the number of doses after X. Some entries were tested several times; the values are given in rising order. Where survival is the endpoint, the PubChem record calls one and a half times the control and up active, and a quarter to a half above the control has no call in these data; cut-offs in other NCI protocols can differ. Some T/C values carry the count of animals alive at the toxicity check (mostly the fifth day); where none is given, no animal had died by that day.

The subject of the assay is CD2F1 mice, L1210 leukemia ip, survival T/C. Nature of the assay: NCI In Vivo Anticancer Drug Screen. Data for tumor model L1210 Leukemia (intraperitoneal) in CD2F1 (CDF1) mice. To be noted: higher T/C = longer survival. An outline of the steps: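 Implant tumor; dose compound or vehicle; measure endpoint in both groups; report treated divided by control.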
[1] abbreviates: T/C endpoint: mean survival time, dose: 300.0 mg/kg/injection, schedule: Q01DX009 (ip), vehicle: saline.
Where [2] appears, read: T/C endpoint: mean survival time, dose: 400.0 mg/kg/injection, schedule: Q04DX003 (ip), vehicle: saline with Tween-80.
Setting [3] is: T/C endpoint: mean survival time, dose: 400.0 mg/kg/injection, schedule: Q01DX001 (ip), vehicle: saline with Tween-80.

As for `C(OC[C@H]1CC[C@@H](COCC2CO2)O1)C1CO1` (some centres undefined), the T/C under setting [1] is 130 % of control.

Consider `O=C1c2c(O)cccc2-c2nn(CCNCCO)c3ccc(NCCNCCO)c1c23`, for which the survivor count is reported as 4 of 6 (T/C endpoint: median survival time, dose: 22.0 mg/kg/injection, schedule: Q01DX009 (ip), vehicle: water) and 2 of 6 (T/C endpoint: median survival time, dose: 44.0 mg/kg/injection, schedule: Q01DX009 (ip), vehicle: water).

Take `COc1ccc(C(=O)C(Br)Br)cc1OC`: the survivor count was 0 of 3 (T/C endpoint: mean survival time, dose: 50.0 mg/kg/injection, schedule: Q04DX002 (ip), vehicle: saline with Tween-80); 0 of 3 (T/C endpoint: mean survival time, dose: 100.0 mg/kg/injection, schedule: Q04DX002 (ip), vehicle: saline with Tween-80); 0 of 3 (T/C endpoint: mean survival time, dose: 200.0 mg/kg/injection, schedule: Q04DX002 (ip), vehicle: saline with Tween-80).

With `COC(/C=C\C(OC)OC)OC`, the survivor count (T/C endpoint: mean survival time, dose: 50.0 mg/kg/injection, schedule: Q01DX009 (ip), vehicle: saline) was 2 of 6.

As to `C=C(OC)C(Nc1cc(OC)c(OC)cc1C(=O)OC1CC(O[C@@H]2C(=O)C(NC(=O)OC)=C3/C(=C\CSSSC)[C@]2(O)C#C/C=C\C#C[C@@H]3OC2OC(C)C(NOC3CC(O)C(SC)C(C)O3)C(O)C2OC2CC(OC)C(NCCC)CO2)OC(C)C1O)OC` (some centres undefined), the T/C by setting is: (T/C endpoint: median survival time, dose: 0.08 micrograms/kg/injection, schedule: Q01DX005 (ip), vehicle: saline + alcohol) 142 % of control; (T/C endpoint: median survival time, dose: 0.16 micrograms/kg/injection, schedule: Q01DX005 (ip), vehicle: saline + alcohol) 132 % of control; (T/C endpoint: median survival time, dose: 0.8 micrograms/kg/injection, schedule: Q01DX005 (ip), vehicle: methylcellulose (MC)) 135 % of control [5 of 6 alive]; (T/C endpoint: median survival time, dose: 1.6 micrograms/kg/injection, schedule: Q01DX001 (ip), vehicle: methylcellulose (MC)) 139 % of control [5 of 6 alive]; (T/C endpoint: median survival time, dose: 1.6 micrograms/kg/injection, schedule: Q01DX005 (ip), vehicle: methylcellulose (MC)) 148 % of control; (T/C endpoint: median survival time, dose: 1.6 micrograms/kg/injection, schedule: Q04DX003 (ip), vehicle: methylcellulose (MC)) 144 % of control. The T/C runs as follows: (T/C endpoint: median survival time, dose: 3.2 micrograms/kg/injection, schedule: Q01DX001 (ip), vehicle: methylcellulose (MC)) 148 % of control; (T/C endpoint: median survival time, dose: 3.2 micrograms/kg/injection, schedule: Q04DX003 (ip), vehicle: methylcellulose (MC)) 148 % of control; (T/C endpoint: median survival time, dose: 12.8 micrograms/kg/injection, schedule: Q04DX003 (ip), vehicle: methylcellulose (MC)) 148 % of control. The survivor count by setting is: (T/C endpoint: median survival time, dose: 12.8 micrograms/kg/injection, schedule: Q01DX005 (ip), vehicle: methylcellulose (MC)) 2 of 6; (T/C endpoint: median survival time, dose: 25.6 micrograms/kg/injection, schedule: Q04DX003 (ip), vehicle: methylcellulose (MC)) 2 of 6; (T/C endpoint: median survival time, dose: 51.2 micrograms/kg/injection, schedule: Q01DX001 (ip), vehicle: methylcellulose (MC)) 2 of 6; (T/C endpoint: median survival time, dose: 102.4 micrograms/kg/injection, schedule: Q01DX001 (ip), vehicle: methylcellulose (MC)) 1 of 6.

As for `Nc1nc(SSc2nc(N)nc3c2ncn3C2CC(O)C(CO)O2)c2ncn(C3CC(O)C(CO)O3)c2n1` (centres undefined), for the setting “T/C endpoint: mean survival time, dose: 9.4 mg/kg/injection, schedule: Q01DX009 (ip), vehicle: saline”, the T/C was 142 % of control. For the same compound, the survivor count runs as follows: (T/C endpoint: mean survival time, dose: 75.0 mg/kg/injection, schedule: Q01DX009 (ip), vehicle: saline) 4 of 6; (T/C endpoint: mean survival time, dose: 150.0 mg/kg/injection, schedule: Q01DX009 (ip), vehicle: saline) 2 of 6; under setting [1], 0 of 6.

Turning to `CC1(CO)C2C=CC(C2)C1(C)CO` (centres undefined), the survivor count (T/C endpoint: mean survival time, dose: 300.0 mg/kg/injection, schedule: Q01DX001 (ip), vehicle: saline) is on record as 1 of 6.

`CC(C(=O)O)[Se](=O)O` (centres undefined): the survivor count is reported as 1 of 3 (T/C endpoint: mean survival time, dose: 100.0 mg/kg/injection, schedule: Q04DX003 (ip), vehicle: saline); 0 of 3 (T/C endpoint: mean survival time, dose: 200.0 mg/kg/injection, schedule: Q04DX003 (ip), vehicle: saline); 0 of 3 (T/C endpoint: mean survival time, dose: 400.0 mg/kg/injection, schedule: Q04DX003 (ip), vehicle: saline).

With `NC(CS)=NCCc1nc2ccccc2[nH]1`, the survivor count (T/C endpoint: mean survival time, dose: 100.0 mg/kg/injection, schedule: Q04DX002 (ip), vehicle: saline) was 0 of 3.

With `CCCCCCN(CCCCCC)CC(O)c1cccc2c1cc(Cl)c1ccccc12` (centres undefined), the survivor count under setting [2] is reported as 6 of 6.

Regarding `CC1(C)CC2(OC2c2ccc([N+](=O)[O-])cc2)C(=O)c2ccccc21` (centres undefined), the survivor count under setting [2] is given as 6 of 6.

Regarding `CCC(=O)NCC(=O)O`, the survivor count was 2 of 6 (T/C endpoint: mean survival time, dose: 100.0 mg/kg/injection, schedule: Q04DX003 (ip), vehicle: saline with Tween-80); 3 of 6 (T/C endpoint: mean survival time, dose: 200.0 mg/kg/injection, schedule: Q04DX003 (ip), vehicle: saline with Tween-80); 3 of 6 under setting [2].

As for `C[n+]1c(-c2cccc(-c3ccccc3)c2)c2cc(N)ccc2c2ccccc21`, the survivor count reads like this: (T/C endpoint: mean survival time, dose: 12.5 mg/kg/injection, schedule: Q01DX009 (ip), vehicle: other) 5 of 6 and 6 of 6; (T/C endpoint: mean survival time, dose: 25.0 mg/kg/injection, schedule: Q01DX009 (ip), vehicle: other) 1 of 6; (T/C endpoint: mean survival time, dose: 50.0 mg/kg/injection, schedule: Q01DX009 (ip), vehicle: other) 0 of 6; (T/C endpoint: mean survival time, dose: 100.0 mg/kg/injection, schedule: Q01DX009 (ip), vehicle: other) 0 of 6.

Regarding `CCOC(=O)C(C)(C)Br`, for the setting “T/C endpoint: mean survival time, dose: 200.0 mg/kg/injection, schedule: Q01DX009 (ip), vehicle: saline with Tween-80”, the survivor count was 2 of 6.

As to `O=C(/C=C/c1ccc2c(c1)OCO2)c1ccc(Cl)cc1`, the survivor count under setting [2] was 6 of 6.

For `CCOC(=O)C(C(=O)COC)C(=O)OCC`, under “T/C endpoint: mean survival time, dose: 400.0 mg/kg/injection, schedule: Q01DX009 (ip), vehicle: water”, the survivor count was 3 of 6.

`CC12CCC(OC3CCCCO3)CC1=CCC1C2CCC2(C)C1CCC2(O)CCN` (centres undefined): the survivor count runs as follows: (T/C endpoint: mean survival time, dose: 25.0 mg/kg/injection, schedule: Q01DX005 (ip), vehicle: other) 6 of 6; (T/C endpoint: mean survival time, dose: 50.0 mg/kg/injection, schedule: Q01DX005 (ip), vehicle: other) 1 of 6; (T/C endpoint: mean survival time, dose: 100.0 mg/kg/injection, schedule: Q01DX005 (ip), vehicle: other) 0 of 6; (T/C endpoint: mean survival time, dose: 125.0 mg/kg/injection, schedule: Q01DX001 (ip), vehicle: Klucel (hydroxypropylcellulose) (HPC)) 2 of 4; (T/C endpoint: mean survival time, dose: 250.0 mg/kg/injection, schedule: Q01DX001 (ip), vehicle: Klucel (hydroxypropylcellulose) (HPC)) 0 of 4.

As for `CC(C)(C)OC(=O)NCCCCC(NC(=O)CNC(=O)C(CSC(c1ccccc1)(c1ccccc1)c1ccccc1)NC(=O)OC(C)(C)C)C(=O)O` (centres undefined), the survivor count is, setting by setting: (T/C endpoint: mean survival time, dose: 200.0 mg/kg/injection, schedule: Q04DX003 (ip), vehicle: saline sonified) 2 of 6; (T/C endpoint: mean survival time, dose: 400.0 mg/kg/injection, schedule: Q04DX003 (ip), vehicle: saline sonified) 0 of 6.

As to `CCOC/C(O)=C(\C#N)c1cccc(Cl)c1`, the survivor count by setting is: (T/C endpoint: mean survival time, dose: 100.0 mg/kg/injection, schedule: Q01DX001 (ip), vehicle: other) 3 of 6; (T/C endpoint: mean survival time, dose: 400.0 mg/kg/injection, schedule: Q01DX001 (ip), vehicle: other) 0 of 6.

Regarding `Nc1nc2c(ncn2-c2ccccc2F)c(=O)[nH]1`, the survivor count by setting is: (T/C endpoint: mean survival time, dose: 200.0 mg/kg/injection, schedule: Q01DX001 (ip), vehicle: saline with Tween-80) 3 of 6; under setting [3], 1 of 6.

In the case of `[O-][n+]1cc(N=Nc2ccc(Cl)cc2)nn1-c1ccc(Cl)cc1`, the survivor count by setting is: (T/C endpoint: mean survival time, dose: 100.0 mg/kg/injection, schedule: Q01DX001 (ip), vehicle: saline) 6 of 6; (T/C endpoint: mean survival time, dose: 200.0 mg/kg/injection, schedule: Q01DX001 (ip), vehicle: saline) 6 of 6.

Take `CCCCCNC(=O)Nc1cccc(Cl)c1C`: the survivor count (T/C endpoint: mean survival time, dose: 400.0 mg/kg/injection, schedule: Q01DX009 (ip), vehicle: saline with Tween-80) is 5 of 6.

Take `Nc1ccc(-c2ccc(C(=O)O)cc2)cc1`: the survivor count runs as follows: under setting [3], 0 of 3 and 0 of 6; (T/C endpoint: mean survival time, dose: 400.0 mg/kg/injection, schedule: Q04DX002 (ip), vehicle: saline with Tween-80) 0 of 3.

In the case of `C#CC(=O)c1ccccc1`, the survivor count (T/C endpoint: mean survival time, dose: 18.8 mg/kg/injection, schedule: Q04DX003 (ip), vehicle: saline) is given as 6 of 6 and the survivor count (T/C endpoint: mean survival time, dose: 37.5 mg/kg/injection, schedule: Q04DX003 (ip), vehicle: saline) is recorded as 0 of 6.
